Source: PMC9905990
No constants are given. Whether binding was seen depends on the method and setting. In cells and extracts the contact can be indirect. Some binding calls cover weakened binding; strength is not graded here.

Chains of the proteins cited; added tags and fusions are not shown.
UniProt Q8CFN5: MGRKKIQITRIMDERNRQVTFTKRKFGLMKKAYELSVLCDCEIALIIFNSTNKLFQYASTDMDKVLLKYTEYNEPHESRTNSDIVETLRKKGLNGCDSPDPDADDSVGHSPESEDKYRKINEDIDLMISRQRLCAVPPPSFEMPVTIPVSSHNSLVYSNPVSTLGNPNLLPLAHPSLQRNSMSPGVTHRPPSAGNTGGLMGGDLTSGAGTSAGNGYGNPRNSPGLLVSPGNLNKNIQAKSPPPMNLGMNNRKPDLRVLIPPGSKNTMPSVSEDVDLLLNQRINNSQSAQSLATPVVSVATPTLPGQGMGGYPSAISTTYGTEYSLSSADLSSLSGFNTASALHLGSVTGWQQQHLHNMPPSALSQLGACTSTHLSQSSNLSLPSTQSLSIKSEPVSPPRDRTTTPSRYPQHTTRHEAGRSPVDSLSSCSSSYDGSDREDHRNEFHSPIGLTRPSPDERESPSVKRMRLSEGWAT
UniProt P42582: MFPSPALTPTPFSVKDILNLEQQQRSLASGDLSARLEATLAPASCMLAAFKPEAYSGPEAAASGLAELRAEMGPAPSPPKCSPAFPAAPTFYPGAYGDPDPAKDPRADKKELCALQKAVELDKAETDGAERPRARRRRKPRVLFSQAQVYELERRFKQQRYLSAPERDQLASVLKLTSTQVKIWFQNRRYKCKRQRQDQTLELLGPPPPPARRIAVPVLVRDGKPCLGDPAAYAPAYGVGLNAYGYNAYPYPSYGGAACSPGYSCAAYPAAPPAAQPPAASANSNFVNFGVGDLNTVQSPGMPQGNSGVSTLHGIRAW
UniProt Q9JLQ4: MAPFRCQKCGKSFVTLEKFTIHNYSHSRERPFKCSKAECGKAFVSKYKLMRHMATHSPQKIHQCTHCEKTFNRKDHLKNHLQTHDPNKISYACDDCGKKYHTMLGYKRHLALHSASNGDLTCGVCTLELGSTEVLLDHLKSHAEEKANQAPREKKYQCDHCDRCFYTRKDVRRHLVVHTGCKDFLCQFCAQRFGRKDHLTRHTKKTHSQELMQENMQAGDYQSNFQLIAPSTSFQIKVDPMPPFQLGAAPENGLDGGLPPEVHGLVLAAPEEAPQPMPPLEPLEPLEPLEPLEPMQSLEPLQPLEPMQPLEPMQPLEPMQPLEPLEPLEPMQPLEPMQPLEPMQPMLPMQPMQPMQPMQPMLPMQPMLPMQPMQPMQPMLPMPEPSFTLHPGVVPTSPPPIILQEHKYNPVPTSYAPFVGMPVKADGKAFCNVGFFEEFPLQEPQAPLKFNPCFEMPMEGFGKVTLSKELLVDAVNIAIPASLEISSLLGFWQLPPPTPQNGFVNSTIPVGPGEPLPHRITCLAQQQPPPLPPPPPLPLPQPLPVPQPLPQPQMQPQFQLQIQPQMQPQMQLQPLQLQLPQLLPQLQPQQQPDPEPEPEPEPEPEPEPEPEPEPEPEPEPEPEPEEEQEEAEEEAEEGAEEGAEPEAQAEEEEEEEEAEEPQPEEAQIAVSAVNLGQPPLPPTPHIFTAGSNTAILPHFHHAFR
UniProt O35730: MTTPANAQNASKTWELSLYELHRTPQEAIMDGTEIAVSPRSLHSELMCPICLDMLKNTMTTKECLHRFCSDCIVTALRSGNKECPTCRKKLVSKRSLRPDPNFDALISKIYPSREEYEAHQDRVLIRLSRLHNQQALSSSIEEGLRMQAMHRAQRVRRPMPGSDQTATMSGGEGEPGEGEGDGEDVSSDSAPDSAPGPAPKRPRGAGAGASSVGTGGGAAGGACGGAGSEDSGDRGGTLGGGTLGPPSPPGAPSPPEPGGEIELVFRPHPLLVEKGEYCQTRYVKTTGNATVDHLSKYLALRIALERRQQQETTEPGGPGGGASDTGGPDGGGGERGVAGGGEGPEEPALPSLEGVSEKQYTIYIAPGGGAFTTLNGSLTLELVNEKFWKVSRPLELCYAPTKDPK

Each substance was assayed against T1, RING1 and YY1 binding protein (RYBP) (UniProt Q8CCI5) (assay: co-IP; HEK293 cells co-transfected with 5 ug FLAG construct and 5 ug pcDNA3.1-Rybp; pre-cleared whole cell lysate incubated overnight at 4 C with anti-RYBP antibody bound to Protein A-Sepharose beads; washed five times with 1X PBS; blot with anti-FLAG M2-HRP).
T1 sequence: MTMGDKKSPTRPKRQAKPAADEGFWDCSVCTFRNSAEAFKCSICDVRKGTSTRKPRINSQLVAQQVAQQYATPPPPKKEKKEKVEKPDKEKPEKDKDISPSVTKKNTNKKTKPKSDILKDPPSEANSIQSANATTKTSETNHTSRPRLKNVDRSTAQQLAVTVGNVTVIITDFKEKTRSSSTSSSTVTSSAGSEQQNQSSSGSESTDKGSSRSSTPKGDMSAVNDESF

| binding | Substance |
| --- | --- |
| no binding | MEF2C, FLAG-tagged (from UniProt Q8CFN5 1-474) |
| binds | NK2 homeobox 5 (NKX2-5), FLAG-tagged (from UniProt P42582 1-318) |
| no binding | Pleiomorphic adenoma gene-like 1 (PLAGL1), FLAG-tagged (from UniProt Q9JLQ4 1-704) |
| binds | RING1, FLAG-tagged (from UniProt O35730 1-406) |
